# Measured values as given in article PMC8626775, “Anti-schistosomal activities of quinoxaline-containing compounds: From hit identification to lead optimisation” (European Journal of Medicinal Chemistry, 2021).
# System: HepG2 cells
# Test: HepG2 MTT cytotoxicity assay
# Conditions: HepG2 CC50 versus schistosomula EC50
# Experimental: Initially the cells were handled under sterile conditions and grown at 37 °C in a humidified atmosphere containing 5% CO2. Cytotoxicity was evaluated by way of a 3-(4, 5- dimethylthiazol-2-yl)-2,5-diphenyl tetrazolium bromide (MTT) assay as previously described. The cells were counted in a dual chamber counting slide using the BIORAD TC-10 Automated cell counter, seeded in a 96-well plate (Fisher Scientific, Loughborough, UK) at a density of 2 × 10^4 cells/well and incubated in an atmosphere of 5% CO2 at 37 °C. […] The absorbance readings (at 570 nm) of the soluble formazan crystals were recorded using PolarStar Omega plate reader (BMG-Labtech). […] The latter was used to calculate the selectivity index (SI) of the compounds presented herein.
compound,measurement,value
"CC(=O)OC[C@H]1O[C@@H]([S-])[C@H](OC(C)=O)[C@@H](OC(C)=O)[C@@H]1OC(C)=O.CCP(CC)CC.[Au+] [AUR, Auranofin, reference compound]",Selectivity Index (SI) Somula,7.17
